Drawing on publication PMC5633398, this text covers binding for 1 substance.

In the test the target is T1, Bcy1-NV (Bcy1 tagged C-terminally with the N-terminal segment of yEmVenus) (C. albicans) (UniProt Q9HEW1).
T1 sequence: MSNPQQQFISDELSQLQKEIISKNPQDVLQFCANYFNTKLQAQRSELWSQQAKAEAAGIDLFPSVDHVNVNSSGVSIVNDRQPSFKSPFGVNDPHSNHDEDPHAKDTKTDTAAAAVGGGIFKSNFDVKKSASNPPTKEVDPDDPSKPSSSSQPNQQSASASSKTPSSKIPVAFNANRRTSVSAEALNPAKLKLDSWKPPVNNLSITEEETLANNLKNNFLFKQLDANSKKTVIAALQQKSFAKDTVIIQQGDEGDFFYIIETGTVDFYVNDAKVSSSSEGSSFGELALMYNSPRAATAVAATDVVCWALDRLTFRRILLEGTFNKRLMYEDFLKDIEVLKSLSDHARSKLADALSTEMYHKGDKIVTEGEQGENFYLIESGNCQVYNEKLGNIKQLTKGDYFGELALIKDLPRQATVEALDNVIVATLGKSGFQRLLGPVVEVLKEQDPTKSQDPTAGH
Kind of test: split reporter; BiFC with split yEmVenus in C. albicans SN152, MET3 promoter; confocal microscopy of living cells in the midexponential phase, SC -methionine -cysteine, 2% glucose (Bcy1-Tpk strains at 37°); fluorescence intensity per pixel quantified.

No constants are given. Whether binding was seen depends on the method and setting. In cells and extracts the contact can be indirect. Binding can be weak; no strength is given. Where a sequence is shown, tags or fusion partners need not be part of it.

In the case of “Tpk2-CV (Tpk2 tagged C-terminally with the C-terminal segment of yEmVenus) (C. albicans) (enzyme)”, the binding result is on record as “binds”.
